According to US20100204263A1, “METHOD OF TREATING MULTIDRUG RESISTANT CANCERS” (priority 2007, published 2010):
Some results were stated once for a whole list of compounds, not compound by compound.

Tested on: K562 (human leukemia) cell lines and a K562 cell line selected for resistance to daunorubicin
Test: MTS cell proliferation assay, K562 and K562 resistant cell lines
Type: cell-based
Settings: daunorubicin-resistant K562 (ABCB1/PGP over-expressing) vs K562

## COc1cc([C@@H]2c3cc4c(cc3[C@@H](O[C@@H]3O[C@@H]5CO[C@@H](C)O[C@H]5[C@H](O)[C@H]3O)[C@H]3COC(=O)[C@H]23)OCO4)cc(OC)c1O [etoposide]
  LC50 increase in resistant cell line: 1 to 2 log units
